The source of these data is PMC7762753.

No constants are given. Whether binding was seen depends on the method and setting. In cells and extracts the contact can be indirect. A result given as binding can be weak or reduced; the word gives no strength.

The target of assay [1] is T1, full-length Kindlin-2 (expression plasmid, COS-7 cells) (UniProt Q8CIB5).
T1 sequence: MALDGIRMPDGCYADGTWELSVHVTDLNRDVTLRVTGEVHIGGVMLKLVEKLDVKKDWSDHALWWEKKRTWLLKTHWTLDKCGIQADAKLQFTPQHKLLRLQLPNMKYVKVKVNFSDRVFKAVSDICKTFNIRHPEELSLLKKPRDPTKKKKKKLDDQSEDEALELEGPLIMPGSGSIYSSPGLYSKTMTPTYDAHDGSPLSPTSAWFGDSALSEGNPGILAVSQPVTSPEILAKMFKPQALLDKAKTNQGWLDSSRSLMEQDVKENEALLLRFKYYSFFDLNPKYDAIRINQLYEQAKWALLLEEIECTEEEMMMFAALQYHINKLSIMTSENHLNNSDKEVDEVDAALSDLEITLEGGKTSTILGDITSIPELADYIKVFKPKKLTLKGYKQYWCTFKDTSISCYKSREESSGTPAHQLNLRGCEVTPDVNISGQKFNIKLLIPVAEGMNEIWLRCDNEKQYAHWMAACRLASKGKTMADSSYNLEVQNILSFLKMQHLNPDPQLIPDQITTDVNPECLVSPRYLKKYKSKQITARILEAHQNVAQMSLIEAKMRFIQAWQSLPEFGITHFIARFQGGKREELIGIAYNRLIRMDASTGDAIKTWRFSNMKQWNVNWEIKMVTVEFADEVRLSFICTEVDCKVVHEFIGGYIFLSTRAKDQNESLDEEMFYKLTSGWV
As to the kind of experiment: co-IP; COS-7 cells co-transfected with Flag-tagged PTH1R cytoplasmic constructs and full-length Kindlin-2; extracts precipitated with Kindlin-2 antibody, blot with Flag and Kindlin-2 antibodies; IP lysis buffer pH 7.4, 0.15 M NaCl, 1% NP-40.

The target of assay [2] is T2, Kindlin-2 (endogenous, MC-4 osteoblastic cells) (mouse (endogenous in MC-4)) (UniProt Q8CIB5).
T2 sequence: T1 sequence
Briefly: co-IP; endogenous proteins; whole-cell extracts of MC-4 cells incubated with Kindlin-2 antibody or IgG, Protein A/G magnetic beads, western blotting; IP lysis buffer pH 7.4, 0.025 M Tris, 0.15 M NaCl, 0.001 M EDTA, 1% NP-40, 5% glycerol. (In general: Immunoblotting shows a protein as a band on a membrane.)

In the case of “Flag-tagged PTH1R cytoplasmic domain aa 1-108 with internal deletion of aa 9-18 (mouse) (domain or fragment)”, the binding result in assay [1] is listed as “no binding”.

For “Flag-tagged PTH1R cytoplasmic domain aa 1-88 (mouse) (domain or fragment)”, in assay [1], the binding entry is “binds”.

Turning to “Flag-tagged PTH1R cytoplasmic domain aa 1-108, mutation #3 (Trp474 to Lys474) (mouse) (domain or fragment)”, the binding result in assay [1] is reported as “no binding”.

Turning to “Flag-tagged PTH1R cytoplasmic domain aa 1-108 (mouse) (domain or fragment)”, the binding result in assay [1] is on record as “binds”.

As to “Flag-tagged PTH1R cytoplasmic domain aa 1-68 (mouse) (domain or fragment)”, the binding result in assay [1] is “binds”.

For the substance “type 1 parathyroid hormone receptor (endogenous, MC-4 osteoblastic cells) (mouse (endogenous in MC-4))”, the binding result in assay [2] is listed as “binds”.
